Test results taken from PubChem BioAssay AID2685 (National Center for Advancing Translational Sciences (NCATS), 2010).
This is one part of the list. These are further read-outs of the screen, such as a control signal, another cell line or another target. No call is given for them. The list favours compounds with an active or inconclusive main result. Potencies come from curve fits of mixed quality, noted in brackets.

Test: qHTS Assay for Lipid Storage Modulators in Drosophila S3 Cells;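 as to cell number change: cells counted by Cell Tracker Red CMTPX staining in the red channel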
Details: BODIPY lipid droplet fluorescence, 18-24 h; for cell number change: measured here: cell count max response, cells fed with added oleic acid
In short: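 Drosophila S3 cells loaded with oleic acid (400 uM, as added) and compounds at several concentrations; lipid droplets imaged by 488-nm laser-scanning cytometry, 500–530 nm intensity and object ratio to cell channel. Percent activity normalized to 20 uM Triacsin C.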

[1] = measured here: cell number channel AC50, cells fed with added oleic acid
[2] = measured here: lipid fluorescence (Fed channel) AC50, cells fed with added oleic acid

## Cc1cccc(C)c1-n1c(C)cc(/C=N/NC(N)=S)c1C
  cell number change: 15%
[1]
  AC50: 0.00517 µM [rising, full curve, poor fit]
[2]
  AC50: 0.231 µM [rising, full curve, poor fit]

## N#Cc1c(Cn2cncn2)nc(=O)n(-c2ccc(Cl)cc2)c1N
  cell number change: -19.6%
[2]
  AC50: 1.03 µM [falling, full curve, poor fit]

## Cc1cccc(-n2c(N)c(-c3nc4ccccc4n3C)c3nc4ccccc4nc32)c1
[2]
  AC50: 2.91 µM [falling, partial curve, poor fit]

## COc1ccc(-n2c(C)ccc2-c2ccccc2)cn1
[2]
  AC50: 16.4 µM [falling, single point]

## CCN(CC)CCn1c2c(c(SCC(=O)Nc3cc(OC)cc(OC)c3)nc1=O)CCC2
  cell number change: -9.4%

## CCCS(=O)(=O)n1nc(-c2ccc(C)cc2)cc1N
  cell number change: 24.3%
[2]
  AC50: 8.2 µM [rising, partial curve, poor fit]

## Cc1cc(Cl)ccc1OCCCC(=O)N1CCCc2ccccc21
[1]
  AC50: 0.116 µM [rising, full curve, poor fit]
[2]
  AC50: 6.51 µM [rising, partial curve, poor fit]

## Cc1nnc(SC(C)C(=O)Nc2c(C)n(C)n(-c3ccccc3)c2=O)n1N (stereo not given)
  cell number change: 9.1%

## Cc1ccc(NCC(=O)NNC2=NCCC2)c(C)c1
  cell number change: -0.166%
[2]
  AC50: 6.51 µM [falling, single point]

## COC(=O)c1cc(Br)c(N)cc1OC
  cell number change: -30.7%

## CC1CCC2(CC1)NC(=O)N(CC(=O)Nc1ccc3c(c1)OCCCO3)C2=O (stereo not given)
  cell number change: -6.74%

## Cc1ccc(COc2ccccc2C(=S)N2CCCC2)cc1
  cell number change: 17.1%
[2]
  AC50: 29.1 µM [falling, single point]

## COc1cccc(-n2nnnc2SCC(=O)NC2CCCC2)c1
  cell number change: 10.5%

## COc1ccc(OCC(=O)N/N=C2/C=C(C)CC2)cc1
[1]
  AC50: 4.11 µM [falling, single point]

## N#CC1=C(N)Oc2[nH]c(=S)[nH]c(=O)c2C12C(=O)Nc1ccccc12 (stereo not given)
[2]
  AC50: 29.1 µM [falling, single point]

## COc1ccccc1N(C)S(=O)(=O)c1ccc(C(=O)Nc2nc(C)c(C(C)=O)s2)cc1
  cell number change: -18.5%
[2]
  AC50: 4.11 µM [falling, single point]

## CC1=Nc2cc(C(=O)NCCCN3CCN(C)CC3)ccc2Sc2ccc(C)cc21
  cell number change: -14.3%

## CN1C(=O)N(c2ccccc2)C(Nc2nncs2)C1(C)C (stereo not given)
  cell number change: 4.39%
[2]
  AC50: 16.4 µM [rising, single point]

## O=C(Nc1ccccc1)N1CCSc2ccccc21
  cell number change: -45%
[1]
  AC50: 1.03 µM [falling, full curve, poor fit]
[2]
  AC50: 0.00461 µM [falling, full curve, poor fit]
